“And” between values parts separate entries of the source, which are not always exact repeats. Equal values may be shown once. This continues a long series; more values of the same kind are listed elsewhere.
Target: T1, SBC2 (Homo sapiens, UniProt O14508)
T1 construct: SOCS2 (amino acids 32–198); His6 (N, cleaved yes); made in house; host or cells: E. coli BL21(DE3)
Assay: Covalent fluorescence polarization (FP) probe displacement assay
Type: binding
Text: With the specific covalent modification of Cys111 established, we decided to fully characterize MN551 as a covalent SOCS2 inhibitor. […] (Fig. 2g, h, Supplementary Fig. 9). Due to the covalent nature of the competing inhibitor, a time-dependent reduction in the fraction of protein-bound probe is observed. […] This value illustrates reasonable specificity for a covalent inhibitor, with nonetheless scope for future optimization. In addition to characterizing the kinetic covalency parameters, we have also assessed the stability of the MN551 by monitoring its reactivity (half-life >70 min) with reduced glutathione (GSH) (Supplementary Fig. 10)[35].
To monitor the SBC2-ligand binding kinetics we designed a fluorescein-labeled small-molecule probe - compound 26. The fluorescence polarization (anisotropy) of a threefold serial dilution of 50 µM SBC2 in 10 nM of the probe in 100 mM HEPES pH 7.5, 50 mM NaCl, 0.5 mM TCEP, 2% DMSO was measured to determine the KL (Supplementary Fig. 9A) (BMG Labtech PHERAstar – firmware v1.33). Protein titration and the curves were fitted using GraphPad Prism 9, using one-site fitting models to determine the probe binding constant, KL. Samples were run in triplicate in 384 well plates, using a total volume per well of 16 μL. The bound fraction of the probe is measure using the equation:1 Fb=Af−A/Af−Ab Where,
A time-dependent reduction in probe anisotropy were measured for a 2-fold serial dilution of […] compound MN551 in 10 nM probe +300 μM SBC2. To determine the initial reversible binding affinity, the initial bound fraction of the probe at time = 0, Fbo (the y-intercept in Fb v/s Time plot, Supplementary Fig. 9B) was plotted against MN551 concentration, and the obtained IC50 is then converted to Ki (Supplementary Fig. 9C)[17]. The slope from Fb versus time graph when divided by Fbo gives rate of covalency, kobs. A plot of kobs v/s MN551 concentration using Michaelis–Menten model of GraphPad Prism 9, provides the parameters kinact (maximum potential rate of inactivation) and KI (concentration of MN551 at which kobs = kinact/2) (Supplementary Fig. 9D, E).
The observed first-order rate constant, kobs is related to KI and kinact by the equation:2 kobs=kinactI/KI+I
At [I]«[KI] the above equation is converted to3 […]
The slope from the plot of kobs against concentration of MN551 gives us the covalent efficiency parameter kinact/KI (Supp Fig. 9F)[30],[33].

The chains behind the UniProt entries cited, without tags or fusion partners. Residues count along the entry.
UniProt O14508, 32-198: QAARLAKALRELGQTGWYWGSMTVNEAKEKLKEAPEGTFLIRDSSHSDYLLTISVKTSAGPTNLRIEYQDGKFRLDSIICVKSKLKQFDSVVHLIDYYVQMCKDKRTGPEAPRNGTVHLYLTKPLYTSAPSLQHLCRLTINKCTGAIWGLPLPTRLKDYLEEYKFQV

[1] = MN551 6250 nM; Cycle 11 (50 min)
[2] = MN551 6250 nM; Cycle 12 (55 min); n=1
[3] = MN551 6250 nM; Cycle 13 (60 min); n=1
[4] = MN551 6250 nM; Cycle 14 (65 min); n=1
[5] = MN551 6250 nM; Cycle 15 (70 min); n=1
[6] = MN551 6250 nM; Cycle 16 (75 min); n=1
[7] = MN551 6250 nM; Cycle 17 (80 min); n=1
[8] = MN551 12500 nM, Cycle 8 (35 min)
[9] = MN551 12500 nM, Cycle 9 (40 min)
[10] = MN551 12500 nM, Cycle 10 (45 min)
[11] = MN551 12500 nM; Cycle 7 (30 min)
[12] = MN551 12500 nM; Cycle 8 (35 min)
[13] = MN551 12500 nM; Cycle 9 (40 min)
[14] = MN551 12500 nM; Cycle 10 (45 min)
[15] = MN551 12500 nM; Cycle 11 (50 min)
[16] = MN551 12500 nM; Cycle 12 (55 min); n=1
[17] = MN551 12500 nM; Cycle 13 (60 min); n=1
[18] = MN551 12500 nM; Cycle 14 (65 min); n=1
[19] = MN551 12500 nM; Cycle 15 (70 min); n=1
[20] = MN551 12500 nM; Cycle 16 (75 min); n=1
[21] = MN551 12500 nM; Cycle 17 (80 min); n=1
[22] = MN551 25000 nM; Cycle 7 (30 min)
[23] = MN551 25000 nM; Cycle 8 (35 min)
[24] = MN551 25000 nM; Cycle 9 (40 min)

O=C(CCl)Nc1cccc(CNC(=O)[C@H](Cc2ccc(OP(=O)(O)O)cc2)NC(=O)Cc2ccc(F)cc2)c1 [MN551]
Fb (MN551 6250 nM; Cycle 10 (45 min)): 0.3266 and 0.3093 and 0.3109 and 0.2301 and 0.2543 and 0.2884 | Anisotropy [1]: 198.2 and 194.4 and 199.1 | Anisotropy based on Raw Data (485) [1]: 199 and 199.9 and 199.1 | Anisotropy data 485,520,520 [1]: 201.7 and 201 and 202.3 | Anisotropy [2]: 199.5 and 199.1 and 199 | Anisotropy based on Raw Data (485) [2]: 196.4 and 197.5 and 194 | Anisotropy [3]: 196 and 198.3 and 197.2 | Anisotropy based on Raw Data (485) [3]: 191.6 and 194.2 and 190.7 | Anisotropy [4]: 195.3 and 193.7 and 195.1 | Anisotropy based on Raw Data (485) [4]: 193.5 and 193.3 and 193 | Anisotropy [5]: 192.4 and 192.2 and 193.5 | Anisotropy based on Raw Data (485) [5]: 191.9 and 189.3 and 189.9 | Anisotropy [6]: 191.5 and 191.1 | Anisotropy based on Raw Data (485) [6]: 188.8 and 186.7 and 186 | Anisotropy [7]: 183.7 and 185.6 and 184.7 | Anisotropy based on Raw Data (485) [7]: 183.5 and 186.6 and 187.8 | Anisotropy data 485,520,520 (MN551 6250 nM; Cycle 20 (95 min); n=1): 181.5 and 181.3 and 178.6 | Fb (MN551 12500 nM, Cycle 7 (30 min)): 0.1837 and 0.2252 and 0.1968 | Anisotropy based on Raw Data (485) [8]: 196.4 and 192.9 and 191.6 | Fb [8]: 0.1586 and 0.1902 and 0.176 | Anisotropy based on Raw Data (485) [9]: 193.6 and 190.4 and 188.8 | Fb [9]: 0.1462 and 0.1718 and 0.1458 | Anisotropy based on Raw Data (485) [10]: 191.4 and 190.5 and 186.4 | Fb [10]: 0.1355 and 0.1842 and 0.155 | Anisotropy (MN551 12500 nM, Cycle 13 (60 min), n=1): 181.7 and 183.5 and 189.2 | Anisotropy (MN551 12500 nM, Cycle 14 (65 min), n=1): 180.3 and 183.6 and 187.7 | Anisotropy (MN551 12500 nM, Cycle 15 (70 min), n=1): 179.6 and 180.9 and 183.7 | Anisotropy (MN551 12500 nM, Cycle 16 (75 min), n=1): 177.3 and 179.9 and 182.9 | Anisotropy (MN551 12500 nM, Cycle 18 (85 min), n=1): 174.5 and 177.7 and 181.3 | Fb, fraction bound (MN551 12500 nM; Cycle 4 (15 min)): 0.235 and 0.2883 and 0.3254 | Fb, fraction bound (MN551 12500 nM; Cycle 5 (20 min)): 0.1985 and 0.2951 and 0.3 | Fb, fraction bound (MN551 12500 nM; Cycle 6 (25 min)): 0.1835 and 0.25 and 0.2758 | Anisotropy data 485,520,520 [11]: 192.7 and 194.6 and 195 | Fb [11]: 0.1824 and 0.2167 and 0.2094 | Fb, fraction bound [11]: 0.1573 and 0.2404 and 0.2826 | Anisotropy [12]: 189.1 and 196.5 and 200 | Anisotropy data 485,520,520 [12]: 191.6 and 193.5 and 193.1 | Fb [12]: 0.1691 and 0.2011 and 0.1981 and 0.1308 and 0.2177 and 0.2526 | Anisotropy [13]: 189.4 and 194.6 and 196.8 | Anisotropy data 485,520,520 [13]: 188.2 and 190.5 and 188.9 | Fb [13]: 0.1386 and 0.188 and 0.1681 and 0.1368 and 0.2032 and 0.2331 | Anisotropy [14]: 187.8 and 192.3 and 194.4 | Anisotropy data 485,520,520 [14]: 187.7 and 189.4 and 187 | Fb [14]: 0.1385 and 0.1801 and 0.1415 and 0.1179 and 0.1957 and 0.2214 | Anisotropy [15]: 185.9 and 188.6 and 192.2 | Anisotropy based on Raw Data (485) [15]: 190.6 and 186.3 and 183.9 | Anisotropy data 485,520,520 [15]: 189.1 and 187 and 187.4 | Anisotropy [16]: 184.9 and 185.8 and 184 | Anisotropy based on Raw Data (485) [16]: 189.4 and 184.2 and 184.4 | Anisotropy [17]: 182.2 and 184.6 and 184.5 | Anisotropy based on Raw Data (485) [17]: 183.7 and 182.3 and 181 | Anisotropy [18]: 180.8 and 180.5 and 183.2 | Anisotropy based on Raw Data (485) [18]: 181.8 and 183.2 and 180.1 | Anisotropy [19]: 179.3 and 180.8 and 181 | Anisotropy based on Raw Data (485) [19]: 182.8 and 180 and 179.1 | Anisotropy [20]: 177.5 and 179.3 and 179.5 | Anisotropy based on Raw Data (485) [20]: 180.4 and 180.3 and 177 | Anisotropy [21]: 176.6 and 179.2 and 184.1 | Anisotropy based on Raw Data (485) [21]: 181.5 and 175 and 175.9 | Anisotropy data 485,520,520 (MN551 12500 nM; Cycle 20 (95 min); n=1): 175.1 and 174.3 and 179.2 | Fb (MN551 25000 nM, Cycle 7 (30 min)): 0.06571 and 0.1096 and 0.08086 | Anisotropy based on Raw Data (485) (MN551 25000 nM, Cycle 12 (55 min)): 177.2 and 179.6 and 176.9 | Anisotropy (MN551 25000 nM, Cycle 13 (60 min), n=1): 173.9 and 176.5 and 177 | Anisotropy (MN551 25000 nM, Cycle 14 (65 min), n=1): 175.3 and 175.7 and 175.8 | Anisotropy (MN551 25000 nM, Cycle 15 (70 min), n=1): 173.7 and 175.1 and 171.9 | Anisotropy (MN551 25000 nM, Cycle 16 (75 min), n=1): 171.4 and 173.8 and 170.8 | Anisotropy (MN551 25000 nM, Cycle 18 (85 min), n=1): 172.2 and 172.1 and 170.9 | Fb, fraction bound (MN551 25000 nM; Cycle 4 (15 min)): 0.1237 and 0.1359 and 0.1307 | Fb, fraction bound (MN551 25000 nM; Cycle 5 (20 min)): 0.07607 and 0.1475 and 0.111 | Fb, fraction bound (MN551 25000 nM; Cycle 6 (25 min)): 0.08609 and 0.09601 and 0.1005 | Anisotropy data 485,520,520 [22]: 185.7 and 182.6 and 187.2 | Fb [22]: 0.113 and 0.1065 and 0.1345 | Anisotropy [23]: 183 and 181.4 | Anisotropy based on Raw Data (485) [23]: 180.8 | Anisotropy data 485,520,520 [23]: 183.3 and 181 and 184.6 | Fb [23]: 0.08844 and 0.08684 and 0.1179 and 0.07212 and 0.09209 and 0.07793 | Anisotropy [24]: 180.2 and 182.1 and 181.6 | Anisotropy based on Raw Data (485) [24]: 181.4 and 180.4 | Anisotropy data 485,520,520 [24]: 182.2 and 182.3 and 182.6 | Anisotropy (MN551 25000 nM; Cycle 10 (45 min)): 180.1 and 180.3 and 176.4

Source: paper PMC10564737, “Structure-based design of a phosphotyrosine-masked covalent ligand targeting the E3 ligase SOCS2” (Nature Communications, 2023)
